Test results: paper PMC3107242

Sequences of proteins named here, by UniProt entry; tags and fusion partners are left off. Residues count along the entry.
UniProt P45975, residues 1-152: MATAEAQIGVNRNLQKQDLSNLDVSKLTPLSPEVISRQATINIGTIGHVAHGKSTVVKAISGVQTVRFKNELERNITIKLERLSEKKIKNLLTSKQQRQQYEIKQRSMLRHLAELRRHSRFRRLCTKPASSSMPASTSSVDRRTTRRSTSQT
UniProt P19109: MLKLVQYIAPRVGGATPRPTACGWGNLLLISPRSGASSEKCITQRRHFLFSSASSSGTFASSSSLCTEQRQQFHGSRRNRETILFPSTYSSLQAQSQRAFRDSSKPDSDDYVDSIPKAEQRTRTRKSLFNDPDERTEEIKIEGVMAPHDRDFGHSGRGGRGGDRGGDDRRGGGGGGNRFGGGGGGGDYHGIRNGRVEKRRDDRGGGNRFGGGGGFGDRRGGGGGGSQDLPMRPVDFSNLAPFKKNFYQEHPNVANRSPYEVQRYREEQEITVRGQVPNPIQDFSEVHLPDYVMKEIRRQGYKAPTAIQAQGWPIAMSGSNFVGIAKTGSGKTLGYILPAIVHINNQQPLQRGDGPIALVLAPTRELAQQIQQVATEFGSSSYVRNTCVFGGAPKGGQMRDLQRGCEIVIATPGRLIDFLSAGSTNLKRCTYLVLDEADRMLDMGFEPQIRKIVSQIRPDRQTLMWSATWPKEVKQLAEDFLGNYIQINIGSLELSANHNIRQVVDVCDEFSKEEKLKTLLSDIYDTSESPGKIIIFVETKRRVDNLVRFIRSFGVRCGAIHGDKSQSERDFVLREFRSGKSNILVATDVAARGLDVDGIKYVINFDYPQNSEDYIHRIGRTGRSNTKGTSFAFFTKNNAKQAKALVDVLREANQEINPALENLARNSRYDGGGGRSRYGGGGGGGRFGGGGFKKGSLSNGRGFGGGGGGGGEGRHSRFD

Target: GST SU(VAR)3-9 NT (aa 1–152) (Drosophila melanogaster) (UniProt P45975)
Assay: affinity purification with mass spectrometry; GST SU(VAR)3-9 NT on a GSTrap FF column connected behind a GST column; Drosophila 0–12 h embryo nuclear extract loaded; wash 200 mM NaCl, 20 mM Tris-HCl pH 8.0, 1 mM EDTA, 0.5% Nonidet P-40; step elution 250, 500 and 750 mM; stained band cut out for mass spectrometry; only the target purified

Rm62 (endogenous, Drosophila embryo nuclear extract) (from UniProt P19109 1-719)
binding: binds

These are yes or no findings as the source states them, for the method shown. In cells and extracts the contact can be indirect. These calls come from enrichment with a bait or labelling near it, and not all partners need be listed.
